Experimental data from PMC12270237.
Positions count from the first letter of the chain named. These are yes or no findings as the source states them, for the method shown. For part of these data: Binding seen in cells or lysates may run through a third protein. Some binding calls cover weakened binding; strength is not graded here. For part of these data: Sequences can lack the tags named with a protein. Values belong to the binder of their own block, whether it stands above or below them.

Amino acid sequences for entries named in this document (tags omitted). Residues count along the entry.
UniProt Q8K2B3, residues 43-664: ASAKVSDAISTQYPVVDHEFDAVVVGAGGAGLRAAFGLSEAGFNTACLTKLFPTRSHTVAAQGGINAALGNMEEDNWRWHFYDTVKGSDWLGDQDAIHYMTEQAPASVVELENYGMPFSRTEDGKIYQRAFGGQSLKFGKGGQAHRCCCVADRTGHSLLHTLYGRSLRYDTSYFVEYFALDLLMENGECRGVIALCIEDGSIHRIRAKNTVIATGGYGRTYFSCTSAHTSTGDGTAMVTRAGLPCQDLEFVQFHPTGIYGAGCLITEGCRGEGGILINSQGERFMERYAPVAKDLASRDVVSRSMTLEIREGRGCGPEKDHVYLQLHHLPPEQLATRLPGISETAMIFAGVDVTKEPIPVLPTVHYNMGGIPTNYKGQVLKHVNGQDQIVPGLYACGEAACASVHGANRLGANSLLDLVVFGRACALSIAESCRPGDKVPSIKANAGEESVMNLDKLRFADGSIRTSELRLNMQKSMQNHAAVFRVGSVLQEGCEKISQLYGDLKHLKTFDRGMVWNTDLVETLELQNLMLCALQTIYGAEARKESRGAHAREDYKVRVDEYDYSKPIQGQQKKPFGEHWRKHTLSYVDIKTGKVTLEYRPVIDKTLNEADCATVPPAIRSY

Columns and labels:
[1] = target: T1, MICU2-Myc (UniProt Q8IYU8); test: co-IP; transfected HEK 293T cells (Micu1-/-, Mcu-/- or WT; some treated with ionomycin or BAPTA-AM 12 h before collection); cells treated with 0.2 mM DSP, lysed in Pierce IP lysis buffer; anti-HA, -Myc or -FLAG beads overnight at 4°C; western blot
T1 sequence: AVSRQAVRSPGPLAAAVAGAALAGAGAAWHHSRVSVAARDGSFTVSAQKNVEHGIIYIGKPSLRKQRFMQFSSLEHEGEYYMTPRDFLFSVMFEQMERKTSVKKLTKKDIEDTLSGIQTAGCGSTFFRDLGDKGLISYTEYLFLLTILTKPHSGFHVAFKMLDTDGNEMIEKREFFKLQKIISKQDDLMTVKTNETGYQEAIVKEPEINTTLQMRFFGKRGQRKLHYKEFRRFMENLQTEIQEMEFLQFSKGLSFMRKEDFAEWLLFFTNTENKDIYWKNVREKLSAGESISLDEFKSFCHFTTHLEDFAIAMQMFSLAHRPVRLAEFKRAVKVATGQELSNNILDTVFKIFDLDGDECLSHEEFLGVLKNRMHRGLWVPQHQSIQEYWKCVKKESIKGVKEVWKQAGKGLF

[2] = target: T2, MICU2^EFmut-Myc (UniProt Q8IYU8); test: as above
T2 sequence: T1 sequence with D163A, E174K, D353A, E364K

[3] = target: T3, MICU1-HA (knock-in mouse, endogenous locus) (mouse) (UniProt Q8VCX5); test: co-IP; IP of MICU1-HA from hepatic mitochondria isolated from Micu1^HA/HA and control mice; western blot
T3 sequence: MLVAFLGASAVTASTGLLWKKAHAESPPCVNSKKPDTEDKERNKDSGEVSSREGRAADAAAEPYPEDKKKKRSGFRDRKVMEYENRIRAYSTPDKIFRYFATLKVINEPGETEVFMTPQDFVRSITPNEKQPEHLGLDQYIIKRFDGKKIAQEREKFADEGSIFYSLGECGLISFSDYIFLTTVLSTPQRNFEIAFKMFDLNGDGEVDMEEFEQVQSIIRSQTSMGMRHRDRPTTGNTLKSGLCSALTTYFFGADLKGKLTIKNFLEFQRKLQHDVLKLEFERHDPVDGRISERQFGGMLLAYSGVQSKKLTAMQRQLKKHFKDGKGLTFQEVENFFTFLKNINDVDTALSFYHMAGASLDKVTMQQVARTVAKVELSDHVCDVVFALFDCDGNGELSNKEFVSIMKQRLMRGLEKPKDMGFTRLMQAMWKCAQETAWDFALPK

[4] = target: SDHA (endogenous, mouse) (mouse (endogenous in N2a)) (UniProt Q8K2B3); test: native gel or EMSA; 2D gel: BN-PAGE (2% digitonin) then SDS-PAGE, western blot; mitochondria isolated from N2a cells

- binding [1]: binds
- binding [2]: binds
B1: Glycerol-3-phosphate dehydrogenase (GPD2) (protein, UniProt P43304 43-727)
chain: ADCISEPVNREPPSREAQLLTLQNTSEFDILVIGGGATGSGCALDAVTRGLKTALVERDDFSSGTSSRSTKLIHGGVRYLQKAIMKLDIEQYRMVKEALHERANLLEIAPHLSAPLPIMLPVYKWWQLPYYWVGIKLYDLVAGSNCLKSSYVLSKSRALEHFPMLQKDKLVGAIVYYDGQHNDARMNLAIALTAARYGAATANYMEVVSLLKKTDPQTGKVRVSGARCKDVLTGQEFDVRAKCVINATGPFTDSVRKMDDKDAAAICQPSAGVHIVMPGYYSPESMGLLDPATSDGRVIFFLPWQKMTIAGTTDTPTDVTHHPIPSEEDINFILNEVRNYLSCDVEVRRGDVLAAWSGIRPLVTDPKSADTQSISRNHVVDISESGLITIAGGKWTTYRSMAEDTINAAVKTHNLKAGPSRTVGLFLQGGKDWSPTLYIRLVQDYGLESEVAQHLAATYGDKAFEVAKMASVTGKRWPIVGVRLVSEFPYIEAEVKYGIKEYACTAVDMISRRTRLAFLNVQAAEEALPRIVELMGRELNWDDYKKQEQLETARKFLYYEMGYKSRSEQLTDRSEISLLPSDIDRYKKRFHKFDADQKGFITIVDVQRVLESINVQMDENTLHEILNEVDLNKNGQVELNEFLQLMSAIQKGRVSGSRLAILMKTAEENLDRRVPIPVDRSCGGL

- binding [3]: binds
B2: SDHC (endogenous, mouse) (protein, UniProt Q9CZB0 30-169)
chain: LGTTAKEEMERFWKKNTSSNRPLSPHLTIYKWSLPMALSVCHRGSGIALSGGVSLFGLSALLLPGNFESYLMFVKSLCLGPTLIYSAKFVLVFPLMYHSLNGIRHLLWDLGKGLAIPQVWLSGVAVVVLAVLSSGGLAAL

- binding [3]: binds
B3: MICU2 (endogenous, mouse) (protein, UniProt Q8CD10 23-432)
chain: AAGRRAVPTRGPLAAAVAGVALAGAGAAWHHGRVKAAAREGSRTVSAQKNYLGPIEKLSLRKQRFMQFSSLEHDGEYYMTPRDFLFSVMFEQVERKTLVKKLAKKDIEDVLSGIQTARCGSTFFRDLGDKGVISYTEYLFLLTILTKPHSGFHVAFKMLDVDGNEMIERKEFVKLQKIISKQDGFKTVKTNETEYQDPTVKEPGVNTTLQVRFFGKRGEKKLHYKEFRRFMENLQTEVQEMEFLQFSKGLNFMRKEDFAEWLLFFTNTENKDIYWRNVREKLSVGESISLDEFKSFCHFTTHLEDFAIAMQMFSLAHRPVRLAEFKRAVKVATGQELSDNLLDTVFKIFDLDGDECLSHGEFLGVLKNRMHRGLWVSQQQSVQEYWKCVKKESIKGVKEAWRQQAGKGPF

- binding [3]: binds
- binding [4]: binds
B4: GPD2 (endogenous, mouse) (protein, UniProt Q64521 43-727)
chain: AGYLTEPVNREPPSREAQLMTLKNTPEFDILVIGGGATGCGCALDAVTRGLKTALVERDDFSSGTSSRSTKLIHGGVRYLQKAIMNLDVEQYRMVKEALHERANLLEIAPHLSAPLPIMLPLYKWWQLPYYWVGIKMYDLVAGSQCLKSSYVLSKSRALEHFPMLQKDKLVGAIVYYDGQHNDARMNLAIALTAARYGAATANYMEVVSLLKKTDPETGKERVSGARCKDVLTGQEFDVRAKCVINASGPFTDSVRKMDDKNVVPICQPSAGVHIVMPGYYSPENMGLLDPATSDGRVIFFLPWEKMTIAGTTDTPTDVTHHPIPSEEDINFILNEVRNYLSSDVEVRRGDVLAAWSGIRPLVTDPKSADTQSISRNHVVDISDSGLITIAGGKWTTYRSMAEDTVDAAVKFHNLNAGPSRTVGLFLQGGKDWSPTLYIRLVQDYGLESEVAQHLAKTYGDKAFEVAKMASVTGKRWPVVGVRLVSEFPYIEAEVKYGIKEYACTAVDMISRRTRLAFLNVQAAEEALPRIVELMGRELNWSELRKQEELETATRFLYYEMGYKSRTEQLTDSTEISLLPSDIDRYKKRFHKFDEDEKGFITIVDVQRVLESINVQMDENTLHEILCEVDLNKNGQVELHEFLQLMSAVQKGRVSGSRLAILMKTAEENLDRRVPIPVDRSCGGL
